## Results of single-concentration screens

Protein sequences, listed by entry. Tags and fused reporters are not part of them.
UniProt P9WPC5, whole entry: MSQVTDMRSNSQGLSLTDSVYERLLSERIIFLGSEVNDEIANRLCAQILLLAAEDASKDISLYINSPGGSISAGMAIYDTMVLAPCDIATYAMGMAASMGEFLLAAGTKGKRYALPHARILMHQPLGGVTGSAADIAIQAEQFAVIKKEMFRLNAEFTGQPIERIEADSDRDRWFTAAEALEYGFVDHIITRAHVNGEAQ
UniProt P9WPC3, whole entry partner: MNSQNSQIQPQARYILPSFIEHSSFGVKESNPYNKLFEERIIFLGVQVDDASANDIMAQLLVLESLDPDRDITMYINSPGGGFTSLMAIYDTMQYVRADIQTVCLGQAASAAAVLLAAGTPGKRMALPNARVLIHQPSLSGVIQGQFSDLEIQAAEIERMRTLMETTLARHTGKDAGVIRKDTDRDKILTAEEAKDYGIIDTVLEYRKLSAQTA
UniProt P9WFT3, whole entry: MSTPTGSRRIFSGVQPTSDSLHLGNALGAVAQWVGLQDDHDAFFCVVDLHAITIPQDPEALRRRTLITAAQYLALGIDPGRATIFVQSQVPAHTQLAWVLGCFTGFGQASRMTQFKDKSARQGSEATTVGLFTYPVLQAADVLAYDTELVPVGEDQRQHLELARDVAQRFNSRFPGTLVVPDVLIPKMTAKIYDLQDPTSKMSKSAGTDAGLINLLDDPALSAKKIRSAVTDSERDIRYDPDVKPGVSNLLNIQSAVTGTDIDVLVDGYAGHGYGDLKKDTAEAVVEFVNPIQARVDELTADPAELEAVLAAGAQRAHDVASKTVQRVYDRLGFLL
UniProt P9WNZ1, whole entry: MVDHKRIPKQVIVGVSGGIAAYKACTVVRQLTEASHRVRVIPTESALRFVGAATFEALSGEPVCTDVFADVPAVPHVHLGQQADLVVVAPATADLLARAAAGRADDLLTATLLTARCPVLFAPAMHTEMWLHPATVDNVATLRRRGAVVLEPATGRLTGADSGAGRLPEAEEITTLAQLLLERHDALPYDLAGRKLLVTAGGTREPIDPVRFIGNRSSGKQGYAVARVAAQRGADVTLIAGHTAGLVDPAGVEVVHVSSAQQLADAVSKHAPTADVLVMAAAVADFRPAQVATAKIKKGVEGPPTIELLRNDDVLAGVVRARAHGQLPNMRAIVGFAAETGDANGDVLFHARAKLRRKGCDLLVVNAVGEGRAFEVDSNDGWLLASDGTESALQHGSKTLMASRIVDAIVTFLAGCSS

Values are the deposited “Percent Effect”, in %. The record does not define 0% and 100%; most values in the screen are far below 50% and negative numbers occur (in some assays of this library far below -100). This is an unselected part of the compounds tested.

ClpP1P2: 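ClpP1P2, Mycobacterium tuberculosis (UniProt P9WPC5 and UniProt P9WPC3). Protease assay of ClpP1P2, read by the AMC dye that it sets free. Compounds at 50 µM. Higher reads as stronger inhibition, judged from the few compounds that gave an IC50. Most other retested compounds had strongly negative values. Of about 69,000 compounds tested this way, about 10 (0.015%) reached 50% or more in at least one test.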
Toxoplasma: 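Assay of Toxoplasma gondii numbers, read through their beta-galactosidase reporter with a colour substrate. Concentration: 10 µM. The record gives no direction; the compounds picked for IC50 retests had high values, so higher reads as fewer parasites. Size under these conditions: about 67,000 compounds, about 260 of them at 50% or above in at least one test.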
MtTrpRS: 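Tryptophan-tRNA ligase, Mycobacterium tuberculosis (UniProt P9WFT3). Enzyme assay of tryptophanyl-tRNA synthetase; the read-out is not stated. Concentration: 10 µM. Higher most likely means stronger inhibition; the record gives no direction and few retests gave an IC50. Size under these conditions: about 65,000 compounds, about 64 of them at 50% or above in at least one test.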
CoaBC: 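Coenzyme A biosynthesis protein CoaBC, Mycobacterium tuberculosis (UniProt P9WNZ1). Enzyme assay of CoaBC with a phosphate dye (Biomol Green) read at 650 nm. Compounds at 30 µM. Higher reads as stronger inhibition, judged from the few compounds that gave an IC50. Most strong results did not repeat in a second test. Size under these conditions: about 67,000 compounds, about 40 of them at 50% or above in at least one test.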

{"structure": "O=C(Cc1ccccc1F)NCC1CCN(CCN2CCOCC2)C1", "stereo": "configuration not stated", "ClpP1P2": 9.43, "Toxoplasma": -0.5036, "MtTrpRS": -2.514, "CoaBC": 8.249}
{"structure": "COc1ccccc1CNC(=O)COc1c(C)n(C)ccc1=O", "ClpP1P2": 0.5466, "Toxoplasma": -1.05, "MtTrpRS": -0.2101, "CoaBC": 2.02}
{"structure": "COCCN1CCC(c2cncc(-c3ccccc3C)n2)CC1", "ClpP1P2": 7.972, "Toxoplasma": -10.14, "CoaBC": 0.4902}
{"structure": "Cc1ncc(CN(C)c2nc3c(cnn3C(C)(C)C)c(=O)[nH]2)s1", "ClpP1P2": 5.89, "Toxoplasma": 7.803, "MtTrpRS": 13.44, "CoaBC": 1.21}
{"structure": "O=C(Cn1cccnc1=O)NC(Cc1cccs1)c1ccccn1", "stereo": "configuration not stated", "ClpP1P2": 0.3927, "Toxoplasma": 12.24, "MtTrpRS": 0.7525, "CoaBC": -4.444}
{"structure": "Cc1ccc(CNC(C)c2ccc(N3CCN(C)CC3)c(F)c2)o1.Cl", "stereo": "configuration not stated", "Toxoplasma": 1.902}
{"structure": "CCNC(=O)N1CCC(Cc2cccc(C(N)=O)c2)C1", "stereo": "configuration not stated", "ClpP1P2": -0.8478, "Toxoplasma": -3.325, "MtTrpRS": -1.667, "CoaBC": -0.8444}
{"structure": "COc1ccc(C)cc1CC(=O)N1CCN(CC(C)O)CC1", "stereo": "configuration not stated", "ClpP1P2": 1.663, "Toxoplasma": -5.451, "MtTrpRS": 5.209, "CoaBC": 2.899}
{"structure": "O=C(O)C(F)(F)F.O=C(O)C(F)(F)F.c1csc(CN2CCC3(COCCN(CC4CC4)C3)C2)n1", "stereo": "configuration not stated", "Toxoplasma": 22.05}
{"structure": "Cn1cc2ncn([C@H]3CCN(Cc4ccccc4)C3)c(=O)c2n1", "ClpP1P2": 18.88, "Toxoplasma": -7.509, "MtTrpRS": 10.2, "CoaBC": 0.9185}
{"structure": "CC(C)n1nc2c(cc1=O)CN(c1ncnc3sccc13)CC2", "ClpP1P2": 4.896, "Toxoplasma": 1.477, "MtTrpRS": 3.609, "CoaBC": 5.447}
{"structure": "CC(=O)N1CCCC1c1cc(N2CCN(C3CCCC3)CC2)cc(C)n1", "stereo": "configuration not stated", "ClpP1P2": 10.14, "Toxoplasma": -5.654, "MtTrpRS": -1.75, "CoaBC": -0.1309}
{"structure": "CCc1cccc(N2CCC(NC(=O)c3cc[nH]n3)CC2)c1", "ClpP1P2": 9.605, "Toxoplasma": -43.03, "MtTrpRS": -2.827, "CoaBC": 0.5222}
{"structure": "CCOc1ncccc1NC(=O)N1CCc2ccccc2C1", "ClpP1P2": 10.04, "Toxoplasma": -0.2154, "MtTrpRS": 7.483, "CoaBC": 7.42}
{"structure": "Cc1ccc(CN2CCC3(CC2)CC(c2cccnc2)C(=O)N3C)o1", "stereo": "configuration not stated", "ClpP1P2": -1.809, "CoaBC": 0}
{"structure": "O=C([C@H]1CN(Cc2nccs2)C[C@H]2OCC[C@@H]12)N1CCCCO1", "ClpP1P2": -5.755, "MtTrpRS": -5.989, "CoaBC": 3.337}
{"structure": "NC(=O)c1nc2c(s1)CCN(C(=O)Nc1ccccc1)CC2", "ClpP1P2": -10.48, "Toxoplasma": 4.517, "CoaBC": 0.2439}
{"structure": "CCc1ccc(CN2Cc3nccn3CC(CN3CCOCC3)C2)o1", "stereo": "configuration not stated", "ClpP1P2": 8.628, "MtTrpRS": -0.382, "CoaBC": -13.18}
{"structure": "CC(C)C1CCN(C(=O)NCC(=O)N(C)CC(F)(F)F)CC1", "ClpP1P2": -1.145, "Toxoplasma": 9.341, "MtTrpRS": -3.6, "CoaBC": -0.2427}
{"structure": "CCCc1cc(CNC2CCN(c3cc(C(C)C)nc(C)n3)CC2)on1", "ClpP1P2": -8.667, "Toxoplasma": 15.83, "MtTrpRS": 6.021, "CoaBC": 4.793}
{"structure": "Cc1nnc(N2CCCC3(CN(c4ccccn4)CCO3)C2)o1.O=C(O)C(F)(F)F", "stereo": "configuration not stated", "Toxoplasma": 7.466}
{"structure": "CCc1nc(CCNC(=O)NC2CCSCC2)cs1", "ClpP1P2": 5.113, "Toxoplasma": 9.562, "MtTrpRS": 4.124, "CoaBC": -9.761}
{"structure": "O=c1[nH]c(CCN2CCCC(Cn3cncn3)C2)nc2ccccc12", "stereo": "configuration not stated", "ClpP1P2": -0.9031, "Toxoplasma": 6.893, "MtTrpRS": -2.235, "CoaBC": -3.71}
{"structure": "COCC1(Nc2nc(C)nc3c2cnn3C)CCCC1", "ClpP1P2": 9.074, "Toxoplasma": 12.32, "MtTrpRS": 1.683, "CoaBC": 1.129}
{"structure": "Cc1ccc(N(CC(=O)NCc2nnc3n2CCC3)S(C)(=O)=O)cc1", "ClpP1P2": -8.494, "Toxoplasma": -9.712, "MtTrpRS": -4.811, "CoaBC": -1.631}
{"structure": "CCN1CCO[C@]2(CCC[C@H]2COCc2csc(C)n2)C1.O=C(O)C(F)(F)F.O=C(O)C(F)(F)F", "Toxoplasma": -11.76}
{"structure": "CC1CN(C(=O)C2(c3cccc(F)c3)CCOCC2)CCO1", "stereo": "configuration not stated", "ClpP1P2": 1.381, "Toxoplasma": -5.831, "MtTrpRS": -2.018, "CoaBC": -5.847}
{"structure": "Cc1ccc(CN2C[C@@H]3[C@@H](C2)OCC(=O)N3Cc2ccncc2)s1", "ClpP1P2": 2.586, "MtTrpRS": 0.5231, "CoaBC": 4.622}

2 of the entries, repeated:

{"structure": "O=C(O)C(F)(F)F.O=C(O)C(F)(F)F.c1csc(CN2CCC3(COCCN(CC4CC4)C3)C2)n1", "stereo": "configuration not stated", "Toxoplasma": 22.05}
{"structure": "CC(=O)N1CCCC1c1cc(N2CCN(C3CCCC3)CC2)cc(C)n1", "stereo": "configuration not stated", "ClpP1P2": 10.14, "Toxoplasma": -5.654, "MtTrpRS": -1.75, "CoaBC": -0.1309}

From ChEMBL document CHEMBL3988442, “University of Dundee, Small-Polar-MMV Screening Library” (2021).